# In all, about 1,700 compounds were measured (“T3 sensor activation Q score (MG/GFP ratio z-score vs DMSO controls)”: median about 0.25, highest 2% from about 1.9 on). The list shows a part of the results.
# Test system: ppGalNAc-T3 sensor
# Assay: T3 sensor activation Q score (MG/GFP ratio z-score vs DMSO controls) (SD units); higher = more sensor activation (inhibition of ppGalNAc-T3 glycosylation)
# Conditions: HEK293 sensor cells; 10 µM; 6 h
# Description: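 Cells were treated with compound at 10 uM for 6 h, then MG/GFP ratio was read by flow cytometry (10,000 cells per well, duplicate wells). Q = (R - R_neg)/SD_neg relative to DMSO vehicle controls; the signal rises when the glycosyltransferase is inhibited.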
row,Structure (SMILES),T3 sensor activation Q score
1,O=C([O-])C(=O)[O-].[NH-][C@@H]1CCCC[C@H]1[NH-].[Pt+4],-0.4
2,Cc1cccc(NC2=C(C#N)C(=O)NC3(CCCC3)S2)c1,-1.15
3,O=C1c2cccc(Sc3ccccc3)c2C(=O)c2c(Sc3ccccc3)cccc21,0.1
4,CCOC(=O)Cc1c[nH]c(=S)[nH]c1=O,0.3
5,C/C=C1\NC(=O)[C@H]2CSSCC/C=C/[C@H](CC(=O)N[C@H](C(C)C)C(=O)N2)OC(=O)[C@H](C(C)C)NC1=O,-0.5
6,CCCNC(=O)c1ccc(S(N)(=O)=O)cc1,0.65
7,Cc1ccc(Cl)cc1NC(=O)N(C)CCO,1.55
8,Cn1ccc(=Nc2ccc(NC(=O)c3ccc(N=c4ccn(C)c5ccc([N+](=O)[O-])cc45)cc3)cc2)cc1,1.4
9,CCOC(=O)CC1(C)NC(C(=O)O)C(C)(C)S1 (centres undefined),0.05
10,CS(=O)(=O)Nc1nc2ccccc2[nH]1,0.6
11,CC1=CC2=C(C=O)C(=O)[C@](C)(O)[C@@H](O)C2=CO1,-0.85
12,Cc1cc(=O)[nH]c(N/N=C2/CCCCC2C)n1 (centres undefined),0.3
13,O=C(OCC1CCC=CO1)C1CCC=CO1 (centres undefined),-0.85
14,Cc1cc(=S)[nH]c(=S)[nH]1,1.1
15,S=C(Nc1ccccc1)Nc1nccs1,0.6
16,S=c1[nH]ccn1-c1ccccc1Cl,0.7
17,CN1CCc2ccccc2C1Cc1ccccc1NC(=O)c1sc2ccccc2c1Cl (centres undefined),0.3
18,Nc1[nH]nc2nc(-c3ccccc3)[nH]c(=O)c12,0.35
19,NS(=O)(=O)c1ccc(NC2(C(=O)O)CCCC2)cc1,1.3
20,COCC(=O)OC1CCn2c1nc1c2C(=O)C(C)=C(NC(C)=O)C1=O (centres undefined),-0.35
21,CCCCSc1ncnc2[nH]ncc12,0.05

# 3 compounds out of the list, sorted by count of non-hydrogen atoms, rising.
row,Structure (SMILES),T3 sensor activation Q score
11,CC1=CC2=C(C=O)C(=O)[C@](C)(O)[C@@H](O)C2=CO1,-0.85
17,CN1CCc2ccccc2C1Cc1ccccc1NC(=O)c1sc2ccccc2c1Cl (centres undefined),0.3
8,Cn1ccc(=Nc2ccc(NC(=O)c3ccc(N=c4ccn(C)c5ccc([N+](=O)[O-])cc45)cc3)cc2)cc1,1.4

# Next results.

row,Structure (SMILES),T3 sensor activation Q score
1,O=c1cc(-c2cccnc2)oc2c1ccc1ccccc12,1.25
2,Nc1ccc(Br)cc1Br,-0.55
3,Cc1c(N2CCCC2)cc2c(c1NC(=O)c1ccccc1Cl)C(C)(C)CC2(C)C,0.7
4,CCOC(=O)C(C#N)C(=N)C1C(=O)OC2CCCCC21 (centres undefined),-0.95
5,CCCCOc1ccc(Nc2cc(Cl)ccc2C(=O)O)cn1,1.4
6,O=C1C(Cl)=C(NCCc2ccccc2)C(=O)c2ccccc21,0.4
7,O=C(O)c1cc(Cl)n[nH]c1=O,-1.1
8,O=C(O)c1ccc(OCCOc2ccccc2)cc1,-1.15
9,CSc1cccc(NC(=O)OC2CCCCCCCCCCC2)c1,0.6
10,Cc1nc(-c2ccccc2)c(Cc2ccccc2O)c(=O)[nH]1,1.4
11,CN(NC(=O)C(=O)NCc1ccco1)C(=O)NC1CCCCC1,0.8
12,CO/N=C1/C=C(C)C(=O)C(C)=C1C,0.25
13,NC(=O)C1=C[C@H]2[C@H]3C=C[C@@]2(O)C(=O)O[C@@H]3O1,-0.05
14,Cc1nc(Br)c(Br)c(C)c1Br,0
15,COc1ccc(Br)c2c1C(=O)CC2,-1.4
16,CNc1nc(SC)n(C)c(=O)c1N=O,-1.05
17,CC(C)c1cc(C(C)C)n2nc(N)nc2n1,0.4
18,c1ccc(CSc2nnc3c4ccccc4c4ccccc4c3n2)cc1,0.4
19,OC1(Cc2ccccc2)CCNCC1,-1.25
20,CN1CCC=C(C(=O)N2c3ccccc3Sc3ccc(Cl)cc32)C1,1.45
21,Cc1cccnc1NC(=O)c1csnn1,0.65

row,Structure (SMILES),T3 sensor activation Q score
1,O=C(O)C(=O)Nc1ncn[nH]1,-1.75
2,O=c1[nH]cnc(CN2CCCCC2)c1O,-1.2
3,CS/C(N)=N\S(=O)(=O)c1ccc(NC(C)=O)cc1,0.1
4,N#C/C(=C\c1cc(O)c(O)c(O)c1)C(N)=O,-0.4
5,CC(C)(C)NC(=S)NC(C)(C)C,-0.2
6,NC(=O)Nc1n[nH]c(-c2ccccc2)n1,0.7
7,CC(=O)OCCn1c2nc(=O)[nH]c(=O)c-2nc2cc(C)c(C)cc21,0.6
8,COc1cc(NCc2ccccc2O)c2ncccc2c1,-1
9,Cn1cnc2ncnn2c1=S,-1.2
10,S=c1nc[nH]c2c1ncn2C1CCCO1 (centres undefined),-0.4
11,O=C(Nc1ccc(C(=O)O)c(O)c1)c1ccccc1,-1
12,Cc1nc2[nH]c(=O)n(O)c(=O)c2s1,-1.3
13,CN(C)/N=N/c1nc[nH]c1C(N)=O,0.35
14,Cc1ccccc1OCC(O)CN1CCN(c2ccc(Cl)cc2)CC1 (centres undefined),-0.4
15,N#Cc1cnn(-c2cccc(Cl)c2)c1-n1cccc1,0.75
16,COc1cc(CCC(=O)O)on1,-0.6
17,O=C(/C=C/c1cccnc1)/C=C/c1cccnc1,-0.9
18,Oc1c(N=Nc2nn[nH]n2)ccc2ccccc12,1.25
19,CCCC1OC(c2cc3c(cc2Cl)OCO3)OCC1CC (centres undefined),0.25
20,N#Cc1c(N)nc(N)nc1Nc1ccc(Br)cc1,1.55
21,COc1ccc2nc(-c3ccc(Cl)cc3)cc(C(=O)O)c2c1,-0.75

row,Structure (SMILES),T3 sensor activation Q score
1,CC1=NN(c2ccccc2)C(=O)C1C(=S)SC1CC(=O)NC1=O (centres undefined),0.4
2,CCOP(=O)(OCC)/C(C#N)=C/c1c[nH]c2ccccc12,-0.85
3,Nc1ccc(NC(=O)c2ccc(C(=O)Nc3ccc(N)cc3)cc2)cc1,1.05
4,S=C(Sc1ccc(Cl)cc1)Sc1ccc(Cl)cc1,-1.2
5,Cn1c(=O)c2[nH]c(CCCc3ccc([N+](=O)[O-])cc3)nc2n(C)c1=O,0.35
6,Cn1c2c(sc1=O)CCC2,1.55
7,O=c1[nH]c2ccccc2n1C1=CCNCC1,1.3
8,NC(=O)c1cc(Br)cc(C2CCCCC2)c1O,0.45
9,CCOC(=O)CCC1(C(=O)OC)C(=O)CCCCC/C=C/1C(=O)OC (centres undefined),1.3
10,Nc1ccc2c(c1)N=[N+]([O-])c1cc(N)ccc1C2,-0.35
11,O=C1c2ccccc2NC(c2cc(Cl)cc(Cl)c2O)N1CCc1ccccn1 (centres undefined),0.55
12,CCCCSc1cc(=O)[nH]c(N)n1,0.2
13,O=C1c2ccccc2C(O)(c2ccccc2)N1c1ccncc1 (centres undefined),0.25
14,CC(=O)Nc1cccc(NC(C)=O)n1,-0.9
15,Cn1cnc([N+](=O)[O-])c1Sc1ncn[nH]1,1.8
16,CCSc1nc(O)cc(=O)[nH]1,-1.2
17,CCCS(=O)(=O)Nc1ccc(F)c(C(=O)c2c[nH]c3ncc(-c4ccc(Cl)cc4)cc23)c1F,-1.75
18,Cc1ccc(NC(=O)N2CCCCC2)cc1NC(=O)N1CCCCC1,1.4
19,Oc1ccc(Nc2ccnc3cc(Cl)ccc23)cc1,1.1
20,O=C(Nc1ccc(Oc2ccc(NC(=O)Nc3ccc([N+](=O)[O-])cc3)cc2)cc1)Nc1ccc([N+](=O)[O-])cc1,-1.45
21,O=C(O)/C(=C/c1ccccc1)c1ccccc1,0.45
